PMC6168597, “Mutations at the hydrophobic core affect Hal3 trimer stability, reducing its Ppz1 inhibitory capacity but not its PPCDC moonlighting function” (Scientific Reports, 2018)
Where a chain is given by its changes, count along the chain named. Names and notes keep the numbering of the source. Results are given in words; binding and its absence hold for the method and conditions named. For some assays here: Binding seen in cells or lysates may run through a third protein. Some binding calls cover weakened binding; strength is not graded here. Tags and fused reporters may be left off the sequences shown.

B1: ScHal3 L403N, recombinant, GST removed (natural protein, S. cerevisiae, UniProt P36024 1-562, looked up)
chain: MTAVASTSGKQDADHNQSIECPRFSRGQKEILLDHEDAKGKDSIINSPVSGRQSISPTLSNATTTTTKSIMNATGTSGAVVSNTPEPGLKRVPAVTFSDLKQQQKQDSLTQLKNDSERTKSPNSNPAPVSNSIPGNHAVIPNHTNTSRTTQLSGSPLVNEMKDYDPKKKDSALKIVDTMKPDKIMATSTPISRENNKVTAKAPTSITLRKEDAQDQANNVSGQINVRSTPEETPVKQSVIPSIIPKRENSKNLDPRLPQDDGKLHVLFGATGSLSVFKIKPMIKKLEEIYGRDRISIQVILTQSATQFFEQRYTKKIIKSSEKLNKMSQYESTPATPVTPTPGQCNMAQVVELPPHIQLWTDQDEWDAWKQRTDPVLHIELRRWADILVVAPLTANTLSKIANGLCDNLLTSVIRAWNPSYPILLAPSMVSSTFNSMMTKKQLQTIKEEMSWVTVFKPSEKVMDINGDIGLGGMMDWNEIVNKIVMKLGGYPKNNEEEDDDEDEEEDDDEEEDTEDKNENNNDDDDDDDDDDDDDDDDDDDDDDDDEDEDEAETPGIIDKHQ
notes: Hal3 (Sis2), S. cerevisiae, in pGEX-6P-1 with L403N; also called the L403 variant; source: E. coli BL21 (DE3) RIL, GST fusion purified on glutathione-agarose, GST cleaved with PreScission protease
B2: S. cerevisiae Hal3 (ScHal3), native, recombinant, GST removed (natural protein, UniProt P36024 1-562, looked up)
chain: B1 chain with N403L
notes: the methods speak of 'each full-length recombinant protein' and the predicted homotrimer is ~190 kDa; also called native ScHal3; WT; source: E. coli BL21 (DE3) RIL, GST fusion purified on glutathione-agarose, GST cleaved with PreScission protease
B3: HA-tagged ScHal3 L403N L405E expressed in S. cerevisiae from pWS93 (natural protein, UniProt P36024 1-562, looked up)
chain: B1 chain with L405E
notes: Hal3 (Sis2), S. cerevisiae, with L403N and L405E; insert released from the pGEX construct and cloned into pWS93; also called the double mutated variant; source: S. cerevisiae IM021 (ppz1 hal3), expressed from pWS93, in protein extract
B4: HA-tagged ScHal3 L405E expressed in S. cerevisiae from pWS93 (natural protein, UniProt P36024 1-562, looked up)
chain: B1 chain with N403L, L405E
notes: Hal3 (Sis2), S. cerevisiae, with L405E; insert released from the pGEX construct and cloned into pWS93; source: S. cerevisiae IM021 (ppz1 hal3), expressed from pWS93, in protein extract
B5: ScHal3 L403N L405E, recombinant, GST removed (protein, UniProt P36024 1-562)
chain: B1 chain with L405E

Tests used:
[1] = biological target: T1, GST-Cab3, recombinant (S. cerevisiae) (UniProt P36076); assay: pull-down; 10 ug GST-Cab3 on glutathione beads, 2 mg protein extract of IM021 yeast expressing HA-tagged ScHal3 versions, anti-HA immunoblot; only the target purified
T1 sequence: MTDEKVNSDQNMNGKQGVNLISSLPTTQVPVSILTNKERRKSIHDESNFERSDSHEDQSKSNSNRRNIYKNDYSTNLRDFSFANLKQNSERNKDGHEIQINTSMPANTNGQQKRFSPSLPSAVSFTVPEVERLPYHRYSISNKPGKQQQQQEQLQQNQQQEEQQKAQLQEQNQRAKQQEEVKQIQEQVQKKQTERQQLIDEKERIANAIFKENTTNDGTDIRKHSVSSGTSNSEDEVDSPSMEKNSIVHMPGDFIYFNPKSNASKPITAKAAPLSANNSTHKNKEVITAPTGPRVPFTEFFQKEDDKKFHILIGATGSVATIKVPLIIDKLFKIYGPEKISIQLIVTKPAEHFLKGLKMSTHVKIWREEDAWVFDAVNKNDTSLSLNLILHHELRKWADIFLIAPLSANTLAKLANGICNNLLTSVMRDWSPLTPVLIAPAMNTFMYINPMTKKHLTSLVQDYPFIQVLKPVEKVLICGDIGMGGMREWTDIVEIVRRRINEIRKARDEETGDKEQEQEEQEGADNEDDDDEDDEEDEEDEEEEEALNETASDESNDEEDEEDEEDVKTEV

[2] = biological target: T2, GST-fused full length Ppz1 (S. cerevisiae, UniProt P26570 1-692); assay: pull-down; 4 ug GST-Ppz1 or GST-Ppz1-Cter on glutathione-agarose beads, 600 ug protein extract of IM021 yeast expressing HA-tagged ScHal3 versions, anti-HA immunoblot; signal related to Ponceau-stained bait, native ScHal3 as the unit; only the target purified
T2 construct: Ser/Thr protein phosphatase Ppz1, S. cerevisiae, full length; also called GST-Ppz1; source: E. coli BL21 (DE3) RIL, purified on glutathione-agarose
T2 sequence (looked up): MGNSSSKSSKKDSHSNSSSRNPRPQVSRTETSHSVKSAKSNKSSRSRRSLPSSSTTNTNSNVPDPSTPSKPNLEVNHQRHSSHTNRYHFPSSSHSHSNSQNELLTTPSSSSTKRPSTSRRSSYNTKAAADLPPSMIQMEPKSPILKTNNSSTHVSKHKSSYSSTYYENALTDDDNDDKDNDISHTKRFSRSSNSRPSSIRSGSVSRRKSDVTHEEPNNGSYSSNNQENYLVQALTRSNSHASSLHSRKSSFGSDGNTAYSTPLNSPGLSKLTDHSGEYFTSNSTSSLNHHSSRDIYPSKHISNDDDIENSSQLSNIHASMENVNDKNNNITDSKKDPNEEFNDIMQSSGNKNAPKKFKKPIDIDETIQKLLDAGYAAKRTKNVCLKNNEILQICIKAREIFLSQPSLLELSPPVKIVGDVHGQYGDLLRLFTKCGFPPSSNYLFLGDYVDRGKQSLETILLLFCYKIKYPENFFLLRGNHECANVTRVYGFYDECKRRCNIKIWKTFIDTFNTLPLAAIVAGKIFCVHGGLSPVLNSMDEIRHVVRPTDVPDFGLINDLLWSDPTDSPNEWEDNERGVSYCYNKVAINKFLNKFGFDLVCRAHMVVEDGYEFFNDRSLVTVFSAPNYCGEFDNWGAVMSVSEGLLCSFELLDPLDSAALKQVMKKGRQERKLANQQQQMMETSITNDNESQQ

[3] = biological target: T3, GST-fused Ppz1-Cter (Δ1–344) catalytic moiety (S. cerevisiae) (UniProt P26570); assay: as above
T3 sequence: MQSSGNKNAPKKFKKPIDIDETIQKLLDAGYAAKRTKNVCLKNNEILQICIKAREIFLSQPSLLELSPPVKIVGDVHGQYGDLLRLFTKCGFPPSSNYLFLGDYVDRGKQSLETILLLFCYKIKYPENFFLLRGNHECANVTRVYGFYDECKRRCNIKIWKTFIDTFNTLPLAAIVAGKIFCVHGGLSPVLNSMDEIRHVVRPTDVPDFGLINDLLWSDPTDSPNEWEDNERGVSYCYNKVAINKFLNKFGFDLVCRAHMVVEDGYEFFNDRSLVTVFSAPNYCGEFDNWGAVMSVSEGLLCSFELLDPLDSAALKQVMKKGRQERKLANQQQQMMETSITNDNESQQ

[4] = biological target: ScHal3 L403N L405E, recombinant, GST removed (S. cerevisiae) (UniProt P36024); assay: cross-linking; purified GST-free proteins (1 or 2 ug) treated with 0.01% glutaraldehyde, SDS-PAGE, Coomassie staining; both purified
[5] = biological target: ScHal3 L403N L405E, recombinant, GST removed (S. cerevisiae) (UniProt P36024); assay: SEC; Superdex 200 HR 10/30, 500 ul at 0.2–0.4 mg/ml of GST-free protein, 10 mM Tris-HCl pH 7.5, 150 mM NaCl, 2 mM DTT, 0.75 ml/min; both purified

Binder	binding [1]	binding [2]	binding [3]	binding [4]	binding [5]
B1	binds	binds	–	–	–
B2	binds	binds	binds	–	–
B3	binds	–	binds	–	–
B4	binds	–	binds	–	–
B5	–	–	–	no binding	no binding
